± gives the standard deviation of the averaged measurements. Small differences around the control level are noise.
Columns and labels:
Assay in all cases: level (log10 ratio to DMSO vehicle control); higher = higher biomarker level / cell amount than vehicle control
[1] = compound: C=C(C)C(=O)OCC(F)(F)C(F)(F)C(F)(F)F [2,2,3,3,4,4,4-Heptafluorobutyl methacrylate]; conditions: 2200 nM; in DMSO
Summary of the method: (§1)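 After a 1 h pretreatment with test substances, BioMAP Diversity Plus human primary cell co-cultures were stimulated with cytokines or activators and incubated 24 h (MyoF 48 h; BT 72 h, or 6 d for secreted IgG). Biomarkers were quantified by ELISA, cell amount by sulforhodamine B, and PBMC viability/proliferation by Alamar Blue. Each well was expressed relative to the mean of 8 same-plate DMSO wells, log10 transformed, and blinded duplicates were averaged.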

[2] = compound: C=CC(=O)OCC(F)(F)C(F)(F)C(F)(F)C(F)(F)COC(=O)C=C [1H,1H,6H,6H-Perfluorohexane-1,6-diol diacrylate]; conditions: 2200 nM; in DMSO
Summary of the method: as §1

[3] = compound: FC(F)(F)C(F)(F)C(F)(F)C(F)(F)C(F)(F)C(F)(F)C(F)(F)CCI [1-Iodo-1H,1H,2H,2H-perfluorononane]; conditions: in DMSO
Summary of the method: as §1

[4] = compound: FC(F)(F)C(F)(F)C(F)(F)C(F)(F)C(F)(F)C(F)(F)C(F)(F)I [1-Iodopentadecafluoroheptane]; conditions: in DMSO
Summary of the method: as §1

[5] = compound: FC(F)C(F)(F)COCC1CO1 [((2,2,3,3-Tetrafluoropropoxy)methyl)oxirane]; conditions: 2200 nM; in DMSO
Summary of the method: as §1

[6] = compound: NC(=O)C(F)(F)C(F)(F)C(F)(F)C(F)(F)C(F)(F)C(F)(F)C(F)(F)F [Perfluorooctanamide]; conditions: 2200 nM; in DMSO
Summary of the method: as §1

[7] = compound: O=C(O)C(F)(F)C(F)(F)C(F)(F)C(F)(F)C(F)(F)C(F)(F)C(F)(F)C(F)(F)C(F)(F)C(F)(F)F [Perfluoroundecanoic acid]; conditions: in DMSO
Summary of the method: as §1

[8] = compound: O=C(O)C(F)(F)C(F)(F)C(F)(F)C(F)(F)C(F)(F)C(F)(F)C(F)(F)C(F)F [9-H-Perfluorononanoic acid]; conditions: 2200 nM; in DMSO
Summary of the method: as §1

[9] = compound: O=C(O)C(F)(F)C(F)(F)C(F)(F)F [Perfluorobutanoic acid]; conditions: 2200 nM; in DMSO
Summary of the method: as §1

[10] = compound: O=C(O)C(F)(F)C(F)(F)F [Perfluoropropanoic acid]; conditions: 2200 nM; in DMSO
Summary of the method: as §1

[11] = compound: O=C(O)C(F)(F)C(F)(F)OC(F)(F)F [Perfluoro-3-methoxypropanoic acid]; conditions: 2200 nM; in DMSO
Summary of the method: as §1

[12] = compound: O=C(O)C(F)(F)OC(F)(F)C(F)(F)OC(F)(F)C(=O)O [Perfluoro-3,6-dioxaoctane-1,8-dioic acid]; conditions: 2200 nM; in DMSO
Summary of the method: as §1

[13] = compound: O=C(O)C(F)(F)OC(F)(F)C(F)(F)OC(F)(F)C(F)(F)C(F)(F)C(F)(F)F [Perfluoro-3,6-dioxadecanoic acid]; conditions: 2200 nM; in DMSO
Summary of the method: as §1

[14] = compound: O=C(O)C=CC(F)(C(F)(F)F)C(F)(F)F [3-(Perfluoroisopropyl)-2-propenoic acid]; conditions: in DMSO
Summary of the method: as §1

[15] = compound: O=P(O)(O)CCC(F)(F)C(F)(F)C(F)(F)C(F)(F)C(F)(F)C(F)(F)C(F)(F)C(F)(F)F [((Perfluorooctyl)ethyl)phosphonic acid]; conditions: 2200 nM; in DMSO
Summary of the method: as §1

[16] = compound: O=S(=O)(Cl)C(F)(F)C(F)(F)C(F)(F)C(F)(F)C(F)(F)C(F)(F)C(F)(F)C(F)(F)F [Perfluoro-1-octanesulfonyl chloride]; conditions: 2200 nM; in DMSO
Summary of the method: as §1

[17] = compound: OCC(F)(F)C(F)(F)C(F)(F)C(F)(F)C(F)(F)C(F)(F)C(F)(F)C(F)(F)C(F)(F)C(F)(F)C(F)(F)F [11:1 Fluorotelomer alcohol]; conditions: in DMSO
Summary of the method: as §1

[18] = compound: OCCC(F)(F)C(F)(F)C(F)(F)C(F)(F)C(F)(F)C(F)(F)C(F)(F)C(F)(F)F [8:2 Fluorotelomer alcohol]; conditions: 2200 nM; in DMSO
Summary of the method: as §1

Test System | level (log10) [1] | level (log10) [2] | level (log10) ([3]; 740 nM) | level (log10) ([3]; 2200 nM) | level (log10) ([3]; 6700 nM) | level (log10) ([3]; 20000 nM) | level (log10) ([4]; 740 nM) | level (log10) ([4]; 2200 nM) | level (log10) ([4]; 6700 nM) | level (log10) ([4]; 20000 nM) | level (log10) [5] | level (log10) [6] | level (log10) ([7]; 740 nM) | level (log10) ([7]; 2200 nM) | level (log10) [8] | level (log10) [9] | level (log10) [10] | level (log10) [11] | level (log10) [12] | level (log10) [13] | level (log10) ([14]; 2200 nM) | level (log10) ([14]; 6700 nM) | level (log10) ([14]; 20000 nM) | level (log10) ([14]; 60000 nM) | level (log10) [15] | level (log10) [16] | level (log10) ([17]; 370 nM) | level (log10) ([17]; 1100 nM) | level (log10) ([17]; 3300 nM) | level (log10) ([17]; 10000 nM) | level (log10) [18]
KF3CT:SRB | 0.009 ± 0.018 | 0.0015 ± 0.0092 | 0.0065 ± 0.0021 | 0.002 | 0.0005 ± 0.005 | 0.005 ± 0.013 | 0.0005 ± 0.0064 | 0.0005 ± 0.0078 | 0.0015 ± 0.0064 | 0.005 ± 0.0057 | -0.0075 ± 0.0035 | 0.0015 ± 0.013 | 0.003 ± 0.0057 | 0.0015 ± 0.005 | 0.002 ± 0.025 | 0.0105 ± 0.023 | 0.0055 ± 0.019 | -0.0035 ± 0.0035 | -0.0105 ± 0.00071 | -0.0155 ± 0.0021 | -0.001 ± 0.018 | -0.005 | -0.009 ± 0.0014 | 0.002 ± 0.013 | -0.001 ± 0.0057 | 0.0105 ± 0.013 | 0.0015 ± 0.022 | -0.01 ± 0.0057 | -0.0285 ± 0.005 | -0.014 ± 0.0057 | 0.0215 ± 0.019
KF3CT:TIMP-2 | -0.0105 ± 0.015 | -0.019 ± 0.011 | -0.001 ± 0.037 | -0.009 ± 0.0071 | 0.0145 ± 0.03 | -0.0035 ± 0.0064 | -0.0235 ± 0.013 | -0.0285 ± 0.0064 | -0.009 ± 0.021 | -0.0225 ± 0.00071 | 0.004 ± 0.03 | 0.0125 ± 0.013 | -0.0405 ± 0.011 | -0.011 ± 0.0071 | -0.0135 ± 0.033 | 0.0015 ± 0.015 | -0.012 ± 0.044 | -0.005 ± 0.014 | -0.011 | -0.0345 ± 0.0021 | 0.007 ± 0.0085 | -0.01 ± 0.013 | 0.007 ± 0.031 | 0.0205 ± 0.023 | 0.0125 ± 0.012 | -0.006 ± 0.0014 | 0.005 ± 0.0014 | -0.014 ± 0.0028 | -0.0405 ± 0.013 | 0.002 ± 0.016 | -0.01 ± 0.024
KF3CT:uPA | -0.0215 ± 0.0078 | -0.0235 ± 0.005 | -0.0035 ± 0.00071 | -0.0105 ± 0.0035 | 0.0025 ± 0.018 | 0.006 ± 0.016 | -0.013 ± 0.021 | -0.0105 ± 0.018 | -0.014 ± 0.013 | 0.0105 ± 0.044 | -0.001 ± 0.0028 | -0.0215 ± 0.025 | -0.005 ± 0.0057 | 0.015 ± 0.014 | -0.004 ± 0.011 | 0.0015 ± 0.0035 | 0.027 ± 0.0057 | -0.0015 ± 0.018 | 0.005 ± 0.0085 | -0.0135 ± 0.0092 | 0.006 ± 0.0057 | 0.0095 ± 0.0064 | 0.0045 ± 0.0078 | 0.004 ± 0.02 | 0.013 ± 0.021 | 0.019 ± 0.024 | -0.0025 ± 0.033 | -0.0115 ± 0.015 | -0.0335 ± 0.00071 | -0.023 ± 0.016 | 0.0065 ± 0.0035
LPS:CCL2/MCP-1 | -0.0085 ± 0.04 | 0.016 ± 0.028 | 0.0245 ± 0.0035 | -0.0135 ± 0.005 | -0.008 ± 0.016 | 0.0145 ± 0.04 | 0.011 ± 0.011 | -0.0005 ± 0.016 | 0.0035 ± 0.00071 | 0.0225 ± 0.0021 | 0.008 | -0.0155 ± 0.032 | 0.034 ± 0.027 | 0.005 ± 0.0028 | -0.0075 ± 0.0064 | -0.004 ± 0.0057 | 0.005 ± 0.0085 | -0.006 ± 0.059 | -0.002 ± 0.027 | 0.009 ± 0.011 | -0.0045 ± 0.021 | 0.004 ± 0.0085 | -0.0155 ± 0.013 | -0.0015 ± 0.0021 | 0.0075 ± 0.03 | 0.019 ± 0.051 | -0.0035 ± 0.026 | -0.001 ± 0.0028 | -0.011 ± 0.011 | -0.009 ± 0.035 | 0.0085 ± 0.033
LPS:CD40 | -0.0465 ± 0.097 | -0.038 ± 0.0071 | 0.033 ± 0.048 | -0.008 ± 0.042 | -0.0105 ± 0.019 | 0.034 ± 0.025 | 0.0415 ± 0.066 | 0.0125 ± 0.067 | 0.0645 ± 0.11 | -0.006 ± 0.15 | -0.0095 ± 0.025 | -0.0185 ± 0.042 | -0.0015 ± 0.064 | -0.0205 ± 0.047 | -0.0275 ± 0.021 | -0.006 ± 0.017 | 0.003 ± 0.027 | 0.0185 ± 0.0035 | 0.001 ± 0.011 | -0.0335 ± 0.032 | -0.0295 ± 0.013 | -0.008 ± 0.0085 | 0.008 ± 0.048 | -0.017 ± 0.079 | -0.0685 ± 0.07 | -0.014 ± 0.076 | 0.0635 ± 0.032 | 0.0305 ± 0.028 | 0.0205 ± 0.0035 | -0.0275 ± 0.00071 | -0.0395 ± 0.0035
LPS:CD62E/E-Selectin | 0.0105 ± 0.0064 | 0.0145 ± 0.00071 | 0.025 ± 0.021 | 0.026 ± 0.0014 | -0.003 ± 0.027 | -0.0175 ± 0.057 | -0.0365 ± 0.0064 | -0.036 ± 0.02 | -0.0155 ± 0.005 | -0.002 ± 0.0071 | 0.0275 ± 0.00071 | 0.0085 ± 0.0064 | 0.005 ± 0.023 | -0.0425 ± 0.022 | -0.004 ± 0.05 | -0.0015 ± 0.013 | -0.0085 ± 0.005 | -0.0065 ± 0.019 | 0.0015 ± 0.0092 | 0.018 ± 0.014 | 0.0005 ± 0.039 | 0.0055 ± 0.015 | -0.013 ± 0.0042 | 0.0165 ± 0.0035 | 0.014 ± 0.021 | -0.0085 ± 0.035 | 0.02 ± 0.0071 | 0.016 ± 0.0085 | 0.01 ± 0.0099 | 0.015 ± 0.014 | 0.004 ± 0.045
LPS:CD69 | 0.0015 ± 0.0035 | -0.0105 ± 0.026 | 0.0115 ± 0.016 | -0.0225 ± 0.021 | -0.0145 ± 0.026 | -0.0065 ± 0.063 | -0.0165 ± 0.11 | -0.051 ± 0.035 | -0.0105 ± 0.033 | 0.037 ± 0.0057 | -0.0045 ± 0.0021 | -0.002 ± 0.021 | 0.062 ± 0.016 | -0.0005 ± 0.0035 | -0.002 ± 0.0028 | -0.0155 ± 0.091 | 0.021 ± 0.03 | 0.003 ± 0.0085 | 0.004 ± 0.025 | -0.0035 ± 0.0035 | -0.0425 ± 0.028 | -0.0365 ± 0.025 | -0.0375 ± 0.00071 | -0.0255 ± 0.023 | -0.0325 ± 0.011 | -0.02 ± 0.071 | 0.012 ± 0.023 | 0.006 ± 0.021 | 0.004 | -0.003 ± 0.031 | -0.001 ± 0.1

— the supplement of paper PMC10331698
